Results reported in the supplement of paper PMC8497498.
This is one part of the list. The data scatter; read single values as rough.

Legend:
Details in all cases: 10 µM
[1] = test system: Plasmodium vivax liver stage (primary human hepatocyte culture); assay: hypnozoite quantity inhibition (% inhibition); higher = more active against hypnozoites
[2] = test system: Plasmodium vivax liver stage (primary human hepatocyte culture); assay: schizont net growth area inhibition (% inhibition); higher = more active against liver schizonts
[3] = test system: primary human hepatocytes; assay: hepatic nuclei reduction relative to DMSO (100 - % of negative control); higher = more toxic to hepatocytes
[4] = assay mode: Prophylactic (treated before or shortly after infection), fixed day 6 post-infection
[5] = assay mode: Radical Cure (treated from day 5 post-infection for 3 days), fixed day 8 post-infection

Row | Compound | hypnozoite quantity inhibition [1, 4] | hypnozoite quantity inhibition [1, 5] | schizont net growth area inhibition [2, 4] | schizont net growth area inhibition [2, 5] | hepatic nuclei reduction [3, 4] | hepatic nuclei reduction [3, 5]
1 | O=CN(O)CCCP(=O)(O)O | -27 | 34 | 34.1 | 9.4 | -4% | 5%
2 | CCOc1ccc(-c2nonc2NC(=O)c2cccc(C)c2)cc1OCC | 37.9 | 48.2 | 67.8 | 41.5 | 8% | -4%
3 | COc1ccccc1CNC(=O)CCn1c(=O)[nH]c2ccccc2c1=O | -38.5 | 17.6 | 97.7 | 9.6 | -11% | -2%
4 | CC1(C)c2nc(-c3ccc(F)cc3)c(Nc3ccc(F)cc3)n2CCN1C(=O)CN | 92 | -1 | 97 | 94.2 | 3% | -6%
5 | CCN(CC)CCNc1ncnc2c1[nH]c1ccc(Cl)cc12 | -3.5 | 42.7 | -44.7 | 4.8 | 2% | 0%
6 | COc1cc(C(=O)Nc2ccc(-c3nc4ccccc4[nH]3)cc2)cc(OC)c1OC | -16.9 | 22.1 | 71.9 | 48.3 | 4% | -18%
7 | COc1ccc2nc(C)cc(OCC(=O)Nc3ccccc3OC)c2c1 | -16 | -18 | 35.6 | -135 | -4% | -5%
8 | OC(c1cc(C(F)(F)F)nc2c(C(F)(F)F)cccc12)C1CCCCN1 (racemic) | 19 | 41 | 55.7 | 85.3 | -4% | 12%
9 | NS(=O)(=O)c1cccc(-c2ccc3ncc(N4CCOCC4)nc3c2)c1 | 92 | -80 | 102 | 77.7 | -4% | -2%
10 | Cc1cc(NC(=O)c2ccc(-c3ccccc3)cc2)no1 | -4.4 | 26.5 | 20.8 | -46 | 3% | -8%
11 | Cc1nn2c(O)c3c(nc2c1-c1ccc(F)cc1)CCCC3 | 32 | -4 | 20.9 | -93.2 | -6% | -13%
12 | COc1ccccc1C(=O)ON=C(N)Cc1cccc2ccccc12 | 11.4 | 7.4 | 35.6 | 19.3 | -1% | -3%
13 | CC1CCCN(C(=O)C(C)Nc2cc(Cl)ccc2N2CCOCC2)C1 (stereo not given) | 32 | 53 | -17.5 | 37.1 | -3% | -2%
14 | COc1cc2c3cc1Oc1c(OC)c(OC)cc4c1C(Cc1ccc(O)c(c1)Oc1ccc(cc1)CC3N(C)CC2)N(C)CC4 (stereo not given) | -13.2 | 56.5 | -64.3 | 35.1 | -9% | 6%
15 | CCOc1ccc(N2C(N)=NC(N)=NC2(C)C)cc1 | 14.5 | -0.8 | 41 | 41.9 | 2% | -14%
16 | O=C1c2ccccc2-c2nnc(-c3ccc(Br)cc3)cc21 | -5.8 | 63.4 | 6 | 36.2 | -7% | -2%
17 | CS(=O)(=O)c1ccccc1C(=O)N(Cc1ccccc1)c1ccccc1 | 13 | -18 | -31.8 | -64.9 | -3% | -11%
18 | Cc1cccc(-n2ncc3c(=O)[nH]c(-n4nc(C)cc4NC(=O)c4cc5ccccc5o4)nc32)c1 | 45.5 | 15.6 | 100 | 34 | 7% | -3%
19 | CNCCC(Oc1ccc(C(F)(F)F)cc1)c1ccccc1 (stereo not given) | -53 | -12 | 5.5 | -35.6 | -3% | -3%
20 | CCCN(CCC)CC(O)COc1ccccc1C(=O)Nc1ccccc1 (stereo not given) | -32.5 | 19.8 | -51.8 | 8.4 | -12% | -6%

Entries from the list above with a carbonyl joined to an NH by a bond outside any ring (seven):
Row | Compound | hypnozoite quantity inhibition [1, 4] | hypnozoite quantity inhibition [1, 5] | schizont net growth area inhibition [2, 4] | schizont net growth area inhibition [2, 5] | hepatic nuclei reduction [3, 4] | hepatic nuclei reduction [3, 5]
2 | CCOc1ccc(-c2nonc2NC(=O)c2cccc(C)c2)cc1OCC | 37.9 | 48.2 | 67.8 | 41.5 | 8% | -4%
3 | COc1ccccc1CNC(=O)CCn1c(=O)[nH]c2ccccc2c1=O | -38.5 | 17.6 | 97.7 | 9.6 | -11% | -2%
6 | COc1cc(C(=O)Nc2ccc(-c3nc4ccccc4[nH]3)cc2)cc(OC)c1OC | -16.9 | 22.1 | 71.9 | 48.3 | 4% | -18%
7 | COc1ccc2nc(C)cc(OCC(=O)Nc3ccccc3OC)c2c1 | -16 | -18 | 35.6 | -135 | -4% | -5%
10 | Cc1cc(NC(=O)c2ccc(-c3ccccc3)cc2)no1 | -4.4 | 26.5 | 20.8 | -46 | 3% | -8%
18 | Cc1cccc(-n2ncc3c(=O)[nH]c(-n4nc(C)cc4NC(=O)c4cc5ccccc5o4)nc32)c1 | 45.5 | 15.6 | 100 | 34 | 7% | -3%
20 | CCCN(CCC)CC(O)COc1ccccc1C(=O)Nc1ccccc1 (stereo not given) | -32.5 | 19.8 | -51.8 | 8.4 | -12% | -6%

Some of the entries so far, in markdown.

| Row | Compound | hypnozoite quantity inhibition [1, 4] | hypnozoite quantity inhibition [1, 5] | schizont net growth area inhibition [2, 4] | schizont net growth area inhibition [2, 5] | hepatic nuclei reduction [3, 4] | hepatic nuclei reduction [3, 5] |
| --- | --- | --- | --- | --- | --- | --- | --- |
| 13 | CC1CCCN(C(=O)C(C)Nc2cc(Cl)ccc2N2CCOCC2)C1 (stereo not given) | 32 | 53 | -17.5 | 37.1 | -3% | -2% |
| 17 | CS(=O)(=O)c1ccccc1C(=O)N(Cc1ccccc1)c1ccccc1 | 13 | -18 | -31.8 | -64.9 | -3% | -11% |

Additional records

Row | Compound | hypnozoite quantity inhibition [1, 4] | hypnozoite quantity inhibition [1, 5] | schizont net growth area inhibition [2, 4] | schizont net growth area inhibition [2, 5] | hepatic nuclei reduction [3, 4] | hepatic nuclei reduction [3, 5]
21 | c1ccc(Oc2ccc(-c3cc(CN4CCOCC4)[nH]n3)cc2)cc1 | -38 | -5 | -64.2 | 12 | -10% | 3%
22 | O=C(Nc1ccc(Cl)cc1)N1CCN(c2ccc3nncn3n2)CC1 | -2.5 | -25.3 | -4.5 | -61.7 | -1% | -10%
23 | COc1ccc(C(=O)NC(c2ccccc2Cl)c2cc(Cl)c3cccnc3c2O)cc1 (stereo not given) | -16.4 | 34.6 | 96.4 | 43.2 | 1% | -6%
24 | O=C(NNc1cc(N2CCCC2)nc(N2CCCC2)n1)c1ccccc1 | -12.6 | -11.7 | 33.6 | 40.8 | -1% | -13%
25 | Cc1ccc(C)c(Cn2c(N3CCC(C(=O)NCc4cccs4)CC3)nc3ccccc32)c1 | -10.7 | -41.6 | 72.4 | -96.1 | 5% | -10%
26 | Nc1ccc2ncnc(Nc3ccc(OCc4cccc(F)c4)c(Cl)c3)c2c1 | -70 | -75 | -35.7 | -12.3 | -12% | -16%
27 | Brc1c(-c2ccc3c(c2)OCO3)nc2ncccn12 | -3 | -25 | 74.2 | -126 | -8% | -9%
28 | COc1cccc(O)c1CN1CCC2(CCCN(Cc3ccc(F)cc3)C2)C1 (stereo not given) | 6.3 | 21 | -31.6 | 7.5 | 0% | -6%
29 | Cc1nn2c(=O)c3c([nH]c2c1-c1ccc(Cl)cc1)CCCC3 | -19 | -12 | 1.7 | -59.9 | 0% | -2%
30 | COc1cccc(Nc2nc(N)c3ccccc3n2)c1 | 8.4 | 42.7 | -5.5 | -22 | 2% | -5%
31 | O=C(NCc1ccco1)C1CCN(S(=O)(=O)c2ccc(Cl)cc2)CC1 | -11.4 | 40.1 | 1.4 | -1.8 | 10% | 0%
32 | N=c1n(CCN2CCCCC2)c2ccccc2n1CC(=O)c1ccc(Cl)c(Cl)c1 | 44.8 | 51.9 | 58.9 | 8.5 | -18% | 14%
33 | O=C(NC1CCCC1)c1ccc(N2CCC(NCc3cccc(C(F)(F)F)c3)CC2)cc1 | -6.3 | 12.8 | -26.5 | 18.8 | -2% | -3%
34 | O=C(Nc1nnc(-c2ccc(Cl)cc2)o1)c1cccc(C(F)(F)F)c1 | 1 | 22 | 48.9 | 12.2 | 1% | 3%
35 | O=C(NC1CCCCC1)C(c1cccs1)N(CCc1ccccc1)C(=O)c1ccco1 (stereo not given) | 15.8 | 42.8 | 13.1 | -9.5 | 1% | -4%
36 | Cc1ccc(-c2nc(CN(Cc3ccccn3)C(C)C)cs2)o1 | 24 | -4 | 9.3 | -125 | -13% | 9%
37 | O=C(Nc1cccc(C2=NCCN2)c1)Nc1cccc(C2=NCCN2)c1 | -28.8 | 35.9 | -60.7 | 39.8 | -14% | 2%
38 | CC(C)NCC(=O)Nc1cccc(C(=O)Nc2cccc(C(F)(F)F)c2)c1 | -163 | 40 | -69.1 | 40.3 | -2% | 3%
39 | CCC(C)NC(=O)c1ccc(NC(=O)C2(c3ccccc3)CCCC2)cc1 (stereo not given) | 0 | -15 | -6.2 | 36.7 | -1% | 6%
40 | CC(C)n1ncc2c(C(=O)NCC(c3cccs3)N3CCOCC3)cc(-c3ccccc3)nc21 (stereo not given) | -7 | 1 | 13 | -59.3 | -1% | -3%

Row | Compound | hypnozoite quantity inhibition [1, 4] | hypnozoite quantity inhibition [1, 5] | schizont net growth area inhibition [2, 4] | schizont net growth area inhibition [2, 5] | hepatic nuclei reduction [3, 4] | hepatic nuclei reduction [3, 5]
41 | CCOc1cc(Cl)c(C(C)NC(=O)c2cccc(OC)c2)cc1OCC (stereo not given) | -1.3 | 34.6 | 48.7 | 40.8 | -1% | -6%
42 | O=C(C1CCN(c2nnc(-n3cccc3)s2)CC1)N1CCC(Cc2ccccc2)CC1 | -7 | -38 | -41.5 | -21.2 | -6% | -4%
43 | Cc1ccc(NC(=O)c2nc[nH]c2C(=O)Nc2nc3ccccc3[nH]2)c(C)c1 | -41 | -41 | 61 | -122 | -8% | -8%
44 | COc1ccc(C)c2sc(N(Cc3cccnc3)C(=O)c3ccc(C#N)cc3)nc12 | -20.2 | 23.7 | 22.3 | -14.2 | 3% | -7%
45 | O=C(NC1CCN(c2ccnc3ccccc23)C1)c1cccc(C(F)(F)F)c1 (stereo not given) | -2 | 31 | 58 | 11.2 | -7% | -1%
46 | Cc1ccc2nc(C)cc(Nc3cccc(C(F)(F)F)c3)c2c1 | -3.5 | 54.2 | 51.9 | 20.3 | -17% | -2%
47 | COc1ccc(-c2cnc3ccc(N4CCCC4)nn23)cc1OC | -11 | -10 | 106 | 103 | -15% | -2%
48 | CC1=C(CC(=O)c2cccc([N+](=O)[O-])c2)C(=O)c2ccccc2C1=O | -36.2 | 31.3 | 12.1 | -4 | -7% | -8%
49 | Cc1cc(O)nc(-n2nc(C)cc2C)n1 | -76 | 9 | -21.5 | 14.8 | -8% | -1%
50 | Cc1nn(C)c(NC(=O)Cn2c(C(C)C)nc3ccccc32)c1-c1ccc(Cl)cc1F | 4 | 15 | 24.9 | 45.4 | -4% | -3%
51 | COCCn1c(C)nc2ccccc2c1=O | 3.9 | 47.3 | 2.4 | 37.3 | -1% | -4%
52 | CCOC(=O)c1c(NC(=O)c2ccccc2)sc2c(O)c(CN(CC)CC)ccc12 | -4.3 | 1.5 | -162 | 26.5 | -1% | -12%
53 | CC1CC1C(=O)NC1CCN(CC2(c3ccccc3)CCCCC2)CC1 (stereo not given) | 5 | -36 | 35.3 | -64.4 | -6% | -7%
54 | CCN(CC)S(=O)(=O)c1ccc(C(=O)Nc2cc(C)nn2-c2nc(C)c(C)c(=O)[nH]2)cc1 | 1 | -25 | -9.4 | -37.9 | -1% | 0%
55 | CCOC(=O)NC(=O)c1ccsc1NC(=O)c1nc2ccccc2s1 | -59 | 19 | 4.8 | -103 | -4% | 6%
56 | COc1ccc(-c2cnc3cnc(-c4cccc(OC(C)C)c4)cn23)cc1 | -28 | 24 | -45.8 | 20.7 | -5% | 2%
57 | Cc1cccc(Cn2ccc(NC(=O)c3ccc4c(c3)OCO4)n2)c1 | 10 | -72 | 0 | -85 | 5% | -2%
58 | CN1CCN(c2c3c(c(C#N)c4nc5ccccc5n24)CCC3)CC1 | -26.6 | 19.8 | 37.8 | -20.2 | -13% | -4%
59 | COc1ccc(C(=N)N)cc1-c1cn(-c2ccc(C(=N)N)cc2)nn1 | 29 | -4 | 46.3 | -8.4 | 15% | 4%
60 | NC(=O)c1cc(-c2ccsc2)ccc1OCCOc1ccccc1 | 41 | -49 | 46.2 | -169 | -1% | -10%
